## Cleaved PARP in drug-treated melanoma cells

Values as published with doi:10.1371/journal.pone.0140310, rounded.

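The test systems are human melanoma cell lines, treated with two drugs together for 72 h and then stained and imaged. The read-out is the fraction of cleaved-PARP-positive nuclei, in % of that fraction in the DMSO control; 200 means twice the control level of this apoptosis marker. Concentrations were fixed for each drug; these are the higher of two levels. The file gives one value for each pair and line, without errors, so small differences may be noise. Basal and induced levels differ widely between cell lines.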
An unselected part of the screen is shown.
An entry leaves out what has no value listed here.

Compounds and concentrations:
U73122, 2 µM: COc1ccc2c(c1)CCC1C2CCC2(C)C(NCCCCCCN3C(=O)C=CC3=O)CCC12 (centres unmarked)
cediranib, 2 µM: COc1cc2c(Oc3ccc4[nH]c(C)cc4c3F)ncnc2cc1OCCCN1CCCC1
NVP-BEZ235, 0.02 µM: Cn1c(=O)n(-c2ccc(C(C)(C)C#N)cc2)c2c3cc(-c4cnc5ccccc5c4)ccc3ncc21
stibogluconate, 10 µM: O=C(O)[C@@H]1[O][Sb](=[O])([O][Sb]2(=[O])[O][C@H]([C@H](O)CO)[C@H](O)[C@H](C(=O)O)[O]2)[O][C@H]([C@H](O)CO)[C@@H]1O (some centres unmarked)
bortezomib, 0.005 µM: CC(C)C[C@H](NC(=O)[C@H](Cc1ccccc1)NC(=O)c1cnccn1)B(O)O
TCS401, 8.33 µM: O=C(O)C(=O)Nc1sc2c(c1C(=O)O)CCNC2
tipifarnib, 0.05 µM: Cn1cncc1[C@@](N)(c1ccc(Cl)cc1)c1ccc2c(c1)c(-c1cccc(Cl)c1)cc(=O)n2C
FK866, 0.05 µM: O=C(/C=C/c1cccnc1)NCCCCC1CCN(C(=O)c2ccccc2)CC1
OSI-906, 2 µM: C[C@]1(O)C[C@@H](c2nc(-c3ccc4ccc(-c5ccccc5)nc4c3)c3c(N)nccn32)C1

{"drugs": "bortezomib + FK866", "IST-MEL1": 1910, "SK-MEL-30": 841, "SK-MEL-28": 594, "WM1745": 587, "WM3526": 3930, "COLO 800": 334, "A2058": 1170, "RPMI-7951": 3520}
{"drugs": "bortezomib + TCS401", "IST-MEL1": 377, "SK-MEL-30": 370, "SK-MEL-28": 131, "WM3526": 1090, "COLO 800": 119, "A2058": 941, "RPMI-7951": 429}
{"drugs": "cediranib + bortezomib", "IST-MEL1": 565, "SK-MEL-30": 814, "SK-MEL-28": 64.0, "WM1745": 317, "WM3526": 3500, "COLO 800": 119, "A2058": 3160, "RPMI-7951": 1540}
{"drugs": "bortezomib + tipifarnib", "IST-MEL1": 639, "SK-MEL-30": 649, "SK-MEL-28": 152, "WM1745": 593, "WM3526": 3250, "COLO 800": 44.3, "A2058": 2410, "RPMI-7951": 1450}
{"drugs": "TCS401 + stibogluconate", "IST-MEL1": 76.0, "SK-MEL-30": 24.9, "SK-MEL-28": 61.0, "WM3526": 37.2, "COLO 800": 138, "A2058": 74.3, "RPMI-7951": 78.1}
{"drugs": "tipifarnib + OSI-906", "IST-MEL1": 64.2, "SK-MEL-30": 61.0, "SK-MEL-28": 95.1, "WM1745": 276, "WM3526": 134, "COLO 800": 95.9, "A2058": 223, "RPMI-7951": 156}
{"drugs": "cediranib + FK866", "IST-MEL1": 73.2, "SK-MEL-30": 126, "SK-MEL-28": 48.7, "WM1745": 93.6, "WM3526": 61.6, "COLO 800": 346, "A2058": 117, "RPMI-7951": 101}
{"drugs": "NVP-BEZ235 + cediranib", "IST-MEL1": 214, "SK-MEL-30": 257, "SK-MEL-28": 45.1, "WM1745": 95.2, "WM3526": 343, "COLO 800": 122, "A2058": 120, "RPMI-7951": 60.4}
{"drugs": "FK866 + U73122", "IST-MEL1": 115, "SK-MEL-30": 214, "SK-MEL-28": 189, "WM3526": 138, "COLO 800": 180, "A2058": 258, "RPMI-7951": 293}
{"drugs": "cediranib + tipifarnib", "IST-MEL1": 249, "SK-MEL-30": 88.9, "SK-MEL-28": 87.2, "WM1745": 97.8, "WM3526": 174, "COLO 800": 105, "A2058": 128, "RPMI-7951": 137}
{"drugs": "U73122 + OSI-906", "IST-MEL1": 137, "SK-MEL-30": 147, "SK-MEL-28": 78.9, "WM3526": 162, "COLO 800": 247, "A2058": 81.5, "RPMI-7951": 173}
{"drugs": "OSI-906 + cediranib", "IST-MEL1": 179, "SK-MEL-30": 126, "SK-MEL-28": 42.4, "WM1745": 123, "WM3526": 142, "COLO 800": 42.9, "A2058": 61.4, "RPMI-7951": 48.7}
{"drugs": "FK866 + NVP-BEZ235", "IST-MEL1": 120, "SK-MEL-30": 92.4, "SK-MEL-28": 133, "WM1745": 127, "WM3526": 356, "COLO 800": 315, "A2058": 496, "RPMI-7951": 39.0}
{"drugs": "bortezomib + stibogluconate", "IST-MEL1": 587, "SK-MEL-30": 1220, "SK-MEL-28": 347, "WM1745": 454, "WM3526": 2960, "COLO 800": 148, "A2058": 1730, "RPMI-7951": 1470}
{"drugs": "FK866 + TCS401", "IST-MEL1": 61.5, "SK-MEL-30": 84.1, "SK-MEL-28": 136, "WM3526": 166, "COLO 800": 175, "A2058": 126, "RPMI-7951": 33.3}
{"drugs": "stibogluconate + OSI-906", "IST-MEL1": 106, "SK-MEL-30": 98.3, "SK-MEL-28": 43.7, "WM1745": 96.3, "WM3526": 74.6, "COLO 800": 300, "A2058": 64.9, "RPMI-7951": 229}
{"drugs": "NVP-BEZ235 + tipifarnib", "IST-MEL1": 169, "SK-MEL-30": 161, "SK-MEL-28": 84.2, "WM1745": 317, "WM3526": 296, "COLO 800": 139, "A2058": 117, "RPMI-7951": 50.9}
{"drugs": "tipifarnib + stibogluconate", "IST-MEL1": 94.6, "SK-MEL-30": 167, "SK-MEL-28": 135, "WM1745": 67.7, "WM3526": 102, "COLO 800": 131, "A2058": 115, "RPMI-7951": 101}
{"drugs": "stibogluconate + FK866", "IST-MEL1": 105, "SK-MEL-30": 211, "SK-MEL-28": 96.1, "WM1745": 64.6, "WM3526": 113, "COLO 800": 129, "A2058": 51.2, "RPMI-7951": 79.1}
{"drugs": "bortezomib + OSI-906", "IST-MEL1": 1040, "SK-MEL-30": 690, "SK-MEL-28": 206, "WM1745": 499, "WM3526": 2500, "COLO 800": 176, "A2058": 3590, "RPMI-7951": 964}
{"drugs": "U73122 + tipifarnib", "IST-MEL1": 146, "SK-MEL-30": 89.8, "SK-MEL-28": 158, "WM1745": 130, "WM3526": 106, "COLO 800": 409, "A2058": 223, "RPMI-7951": 405}
{"drugs": "stibogluconate + U73122", "IST-MEL1": 62.3, "SK-MEL-30": 55.1, "SK-MEL-28": 108, "WM3526": 78.2, "COLO 800": 87.9, "A2058": 70.1, "RPMI-7951": 132}
{"drugs": "TCS401 + OSI-906", "IST-MEL1": 122, "SK-MEL-30": 74.3, "SK-MEL-28": 156, "WM3526": 172, "COLO 800": 125, "A2058": 98.9, "RPMI-7951": 33.8}
{"drugs": "FK866 + OSI-906", "IST-MEL1": 278, "SK-MEL-30": 64.1, "SK-MEL-28": 64.9, "WM1745": 109, "WM3526": 113, "COLO 800": 120, "A2058": 104, "RPMI-7951": 159}
{"drugs": "TCS401 + NVP-BEZ235", "IST-MEL1": 118, "SK-MEL-30": 162, "SK-MEL-28": 199, "WM3526": 80.9, "COLO 800": 142, "A2058": 72.5, "RPMI-7951": 119}
{"drugs": "tipifarnib + TCS401", "IST-MEL1": 301, "SK-MEL-30": 97.7, "SK-MEL-28": 70.8, "WM1745": 107, "WM3526": 46.2, "COLO 800": 91.8, "A2058": 70.5, "RPMI-7951": 77.6}
{"drugs": "cediranib + U73122", "IST-MEL1": 79.5, "SK-MEL-30": 140, "SK-MEL-28": 34.5, "WM1745": 102, "WM3526": 45.1, "COLO 800": 52.3, "A2058": 87.8, "RPMI-7951": 134}
{"drugs": "U73122 + NVP-BEZ235", "IST-MEL1": 95.0, "SK-MEL-30": 124, "SK-MEL-28": 149, "WM3526": 82.4, "COLO 800": 76.0, "A2058": 210, "RPMI-7951": 220}
{"drugs": "FK866 + tipifarnib", "IST-MEL1": 286, "SK-MEL-30": 107, "SK-MEL-28": 96.0, "WM1745": 65.2, "WM3526": 141, "COLO 800": 268, "A2058": 137, "RPMI-7951": 125}
{"drugs": "NVP-BEZ235 + OSI-906", "IST-MEL1": 93.5, "SK-MEL-30": 177, "SK-MEL-28": 261, "WM1745": 162, "WM3526": 518, "COLO 800": 80.1, "A2058": 147, "RPMI-7951": 132}
{"drugs": "NVP-BEZ235 + bortezomib", "IST-MEL1": 242, "SK-MEL-30": 313, "SK-MEL-28": 295, "WM1745": 235, "WM3526": 1050, "COLO 800": 230, "A2058": 506, "RPMI-7951": 188}
{"drugs": "cediranib + TCS401", "IST-MEL1": 23.5, "SK-MEL-30": 112, "SK-MEL-28": 23.7, "WM1745": 139, "WM3526": 95.8, "COLO 800": 70.7, "A2058": 52.7, "RPMI-7951": 72.3}
{"drugs": "U73122 + TCS401", "IST-MEL1": 32.8, "SK-MEL-30": 101, "SK-MEL-28": 161, "WM1745": 142, "WM3526": 66.5, "COLO 800": 64.6, "A2058": 139, "RPMI-7951": 447}

Once more, the final 4:

Drugs,IST-MEL1,SK-MEL-30,SK-MEL-28,WM1745,WM3526,COLO 800,A2058,RPMI-7951
NVP-BEZ235 + OSI-906,93.5,177,261,162,518,80.1,147,132
NVP-BEZ235 + bortezomib,242,313,295,235,1050,230,506,188
cediranib + TCS401,23.5,112,23.7,139,95.8,70.7,52.7,72.3
U73122 + TCS401,32.8,101,161,142,66.5,64.6,139,447